# Measurements as given in patent US12116370B2, “Condensed heterocyclic compound having a bridgehead nitrogen atom or salt thereof, agricultural or horticultural insecticide comprising the compound, and method for using the insecticide” (Nihon Nohyaku Co., Ltd., priority 2019, dated 2024).
# Some entries share one result that the patent states for a list of compounds.
# System: Myzus persicae
# Test: Test for control efficacy on Myzus persicae
# Format: in vivo
# Conditions: 500 ppm, foliar application to potted Chinese cabbage, 6 days after application
row,SMILES,control efficacy (control rate) activity level
1,CCS(=O)(=O)c1cc(/C=N/OCC(F)F)cnc1-c1nc2cc(C(F)(F)F)ccn2n1 [Compound 1-7],A (the control rate is 100%.)
2,"CCS(=O)(=O)c1ccc(/C=N/OCC(F)(F)F)nc1-c1nc2cc(C(F)(F)C(F)(F)F)ncn2n1 [Compound 2-42, 5-ethylsulfonyl-6-(7-pentafluoroethyl-[1,2,4]triazolo[1,5-c]pyridin-2-yl)picolinaldehyde O-(2,2,2-trifluoroethyl)oxime]",A (the control rate is 100%.)
3,"CCS(=O)(=O)c1cc(/C(=N/OCCSC)OC)cnc1-c1nc2cc(C(F)(F)F)ccn2n1 [Compound 3-1, methyl 5-ethylsulfonyl-N-(2-methylthioethoxy)-6-(7-(trifluoromethyl)-[1,2,4]triazolo[1,5-a]pyridin-2-yl)nicotinimidate]",A (the control rate is 100%.)
4,"CCS(=O)(=O)c1cc(/C(Br)=N/OCCSC)cnc1-c1nc2cc(C(F)(F)F)ccn2n1 [Compound 3-19, 5-ethylsulfonyl-N-(2-methylthioethoxy)-6-(7-trifluoromethyl-[1,2,4]triazolo[1,5-a]pyridin-2-yl)nicotinimidoyl bromide]",A (the control rate is 100%.)
5,CCS(=O)(=O)c1cc(/C(=N/OCCSC)C2CC2)cnc1-c1nc2cc(C(F)(F)F)ccn2n1 [Compound 3-28],A (the control rate is 100%.)
6,"CCS(=O)(=O)c1cc(/C(=N/OCCSC)c2ccccc2)cnc1-c1nc2cc(C(F)(F)F)ccn2n1 [Compound 3-46, (5-ethylsulfonyl-6-(7-trifluoromethyl-[1,2,4]triazolo[1,5-a]pyridin-2-yl)pyridin-3-yl)phenylmethanone O-(2-methylthioethyl)oxime]",A (the control rate is 100%.)
